Publication PMC12276012, “Molecular mechanisms of biomolecular condensate formation in Drosophila melanogaster siRNA biogenesis”
Construct, isoform or probe ends are uncertain for at least one entry. At least one verdict rests on a figure or table, not on a statement of the authors.

Chains of the proteins cited; added tags and fusions are not shown. Chains listed by the source or under a name are the forms on record and can include a tag or linker.
Ago2 4-repeat (Drosophila melanogaster), one chain, as listed by the source: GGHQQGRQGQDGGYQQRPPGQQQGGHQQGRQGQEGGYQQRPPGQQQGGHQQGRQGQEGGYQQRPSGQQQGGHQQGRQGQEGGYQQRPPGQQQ

Tested on: Ago2 4-repeat (Drosophila melanogaster)
Test: NMR (dense phase)
Conditions: protein 3 mM, condensed with hairpin DNA; NMR: 20 mM sodium phosphate pH 6.5, PS-I or PS-II buffer (50-500 mM NaCl), 292 K for Loqs-PD deltaC; recombinant protein; protein details: His6 tag cleaved by TEV; folded or branched DNA

GGAGCTTTCAAAATGATCTCCGTGAGGAGATCATTTTGAAAGCTCCTATAGTGAGTCGTATTA [21 bp hairpin dsDNA]
binding result: binds
